From PubChem BioAssay AID1487 (National Center for Advancing Translational Sciences (NCATS), 2009)
This is one part of the list. These are further read-outs of the screen, such as a control signal, another cell line or another target. No call is given for them. The list favours compounds with an active or inconclusive main result. The note in brackets gives the kind of curve behind each potency; many fits are weak.

Experiment: qHTS Assay for Modulators of Lamin A Splicing
Conditions: HeLa LMNA splicing GFP/RFP minigene ratio, 48 h
Procedure, shortened: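 S3 HeLa cells stably expressing lamin A-EGFP splicing minigene plus DsRed2, 600 cells/well, 48 h compound exposure at 37C. Laser-scanning cytometry; analysed as GFP (500-530 nm)/RFP (575-640 nm) total intensity ratio; 0.5% DMSO vehicle.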

[1] = measured here: RFP viability control channel
[2] = measured here: GFP splicing reporter channel

SMILES: CCCCn1c(=N)n(CC(O)COc2ccc(C)cc2)c2ccccc21 (configuration not stated)
- AC50 [1]: 35.5 µM [rising, single point]

SMILES: CCN(CC)S(=O)(=O)c1ccc(C(=O)NCCSc2c[nH]c3ccccc23)cc1
- AC50 [1]: 25.1 µM [rising, single point]

SMILES: CCCc1ccc(-c2cc(C(=O)NC3=NCCS3)c3ccccc3n2)cc1
- AC50 [2]: 12.6 µM [rising, single point]
- AC50 [1]: 14.1 µM [rising, partial curve]

SMILES: COc1ccccc1CC(=O)NNS(=O)(=O)c1ccccc1[N+](=O)[O-]
- AC50 [2]: 4.47 µM [falling, full curve, poor fit]
- AC50 [1]: 4.47 µM [falling, single point]

SMILES: CCOc1ccccc1C(=O)Nc1nc2c(s1)CC(C)CC2 (configuration not stated)
- AC50 [1]: 35.5 µM [falling, partial curve, poor fit]

SMILES: CCCOc1ccc(C(=O)c2nc3c(n2O)CCCCC3)cc1
- AC50 [1]: 17.8 µM [rising, single point]

SMILES: COc1cc2c(cc1NC(=O)c1cccc(S(=O)(=O)N(C)C)c1)oc1ccccc12
- AC50 [2]: 35.5 µM [rising, single point]
- AC50 [1]: 35.5 µM [rising, single point]

SMILES: Fc1ccc(CSc2nnc(-c3ccncc3)o2)cc1
- AC50 [2]: 6.31 µM [falling, single point]

SMILES: COc1ccc(C(=O)Nn2c(CCC(=O)O)ccc2-c2ccc(C)cc2)cc1OC
- AC50 [2]: 35.5 µM [falling, partial curve, poor fit]

SMILES: Clc1ccc(OCc2nnc(SCc3nc4ccccc4[nH]3)n2Cc2ccco2)cc1
- AC50 [1]: 10 µM [rising, partial curve]

SMILES: Cc1noc(C)c1COc1ccc(C(=O)Nc2ccccc2)cc1
- AC50 [2]: 0.794 µM [rising, partial curve, poor fit]
- AC50 [1]: 0.316 µM [rising, full curve, poor fit]

SMILES: COc1cc(-c2nnc(SCc3c(F)cccc3Cl)o2)cc(OC)c1OC
- AC50 [1]: 31.6 µM [rising, single point]

SMILES: CCC(CC)NC(=O)/C=C/c1ccccc1Cl
- AC50 [2]: 8.91 µM [rising, partial curve, poor fit]
- AC50 [1]: 20 µM [rising, partial curve, poor fit]

SMILES: CC(=O)Nc1ccc(S(=O)(=O)N2CCN(CCCOc3ccccc3Cl)CC2)cc1
- AC50 [1]: 15.8 µM [rising, single point]

SMILES: CN(CC(=O)Nc1nc2ccccc2s1)S(=O)(=O)c1ccc(Br)cc1
- AC50 [2]: 31.6 µM [rising, single point]
- AC50 [1]: 35.5 µM [rising, single point]

SMILES: c1ccc(Nc2nc(-c3ccc4c(c3)OCO4)nc3ccccc23)cc1
- AC50 [2]: 15.8 µM [falling, partial curve]
- AC50 [1]: 17.8 µM [falling, partial curve]

SMILES: CCCNc1nc2c(c(=O)n(C)c(=O)n2C)n1Cc1ccc(F)cc1
- AC50 [1]: 14.1 µM [rising, single point]

SMILES: COc1ccc(-n2c(Cc3cccn3C)nnc2SCC(=O)Nc2ccc(F)cc2)cc1
- AC50 [1]: 0.708 µM [falling, partial curve, poor fit]

SMILES: O=C(CCN1CCOCC1)NNC(=S)NC(=O)c1ccc(Br)cc1
- AC50 [1]: 35.5 µM [rising, single point]

SMILES: CCCCc1ccc(NC(=S)N2CCCC(C)C2)cc1 (configuration not stated)
- AC50 [2]: 1.26 µM [falling, full curve, poor fit]

SMILES: O=S(=O)(Nc1ccccc1N1CCCCC1)c1ccc(F)cc1
- AC50 [2]: 5.62 µM [rising, partial curve]

SMILES: CCCCN(CCCNC(=O)c1ccc2nc(N3CCOCC3)sc2c1)Cc1ccccc1
- AC50 [1]: 11.2 µM [rising, partial curve]

SMILES: CNC(=O)c1ccsc1NC(=O)c1ccc2c(c1)CCCC2
- AC50 [1]: 5.62 µM [rising, partial curve]

SMILES: CNCCCOc1ccc(Cl)cc1C(C)(C)C
- AC50 [2]: 11.2 µM [falling, single point]
- AC50 [1]: 10 µM [falling, partial curve]

SMILES: CCC1CN(C(=O)N2CCC(C(=O)NCCc3ccccc3C)CC2)c2ccccc2O1 (configuration not stated)
- AC50 [2]: 10 µM [falling, partial curve, poor fit]

SMILES: Cc1cccc(-n2nnnc2SCC(=O)c2cc(C)n(Cc3ccco3)c2C)c1
- AC50 [2]: 17.8 µM [rising, single point]

SMILES: CCOc1ccc(CN2CCN(C/C=C/c3ccc(OC)cc3)CC2CCO)cc1 (configuration not stated)
- AC50 [2]: 0.126 µM [falling, partial curve, poor fit]
- AC50 [1]: 0.00794 µM [falling, full curve, poor fit]

SMILES: COc1ccc(C(=O)O/N=C(\N)Cc2ccc(Cl)cc2Cl)cc1OC
- AC50 [2]: 25.1 µM [falling, single point]
- AC50 [1]: 22.4 µM [falling, single point]

SMILES: Cc1ccc2c(c1)nnn2C1CCN(CC(=O)Nc2ccccc2N2CCOCC2)CC1
- AC50 [1]: 35.5 µM [rising, single point]

SMILES: COc1cccc(Cn2c(=O)c(-c3cc(F)cc(F)c3)nc3cnc(N4CCNCC4)nc32)c1
- AC50 [2]: 17.8 µM [falling, partial curve]
- AC50 [1]: 15.8 µM [falling, partial curve]

SMILES: O=C(CSCc1cccc(F)c1)N1CCN(c2ccccc2)CC1
- AC50 [1]: 14.1 µM [rising, single point]

SMILES: Cc1cc(Nc2ncc(Cl)cc2Cl)n(-c2ccccc2C)n1
- AC50 [2]: 31.6 µM [rising, single point]
- AC50 [1]: 31.6 µM [rising, single point]

SMILES: C=CCNC(=S)N/N=C/c1ccc(C)cc1C
- AC50 [2]: 14.1 µM [rising, single point]
- AC50 [1]: 11.2 µM [rising, partial curve, poor fit]

SMILES: Cc1[nH]c2ccccc2c1/C=N/Nc1ccccn1
- AC50 [1]: 0.00447 µM [rising, full curve, poor fit]

SMILES: N#Cc1c2c(c(NCCCN3CCOCC3)n3c1nc1ccccc13)CCC2
- AC50 [2]: 12.6 µM [rising, partial curve, poor fit]
- AC50 [1]: 11.2 µM [rising, partial curve]

SMILES: Cc1ccc(-c2noc(CSc3nnc(-c4ccncc4)n3-c3ccc(F)cc3)n2)cc1
- AC50 [1]: 31.6 µM [rising, single point]

SMILES: O=C(CSc1ccc(-c2ccco2)nn1)c1cccc([N+](=O)[O-])c1
- AC50 [2]: 11.2 µM [rising, single point]

SMILES: CC(C)(C)NC(=O)CSc1nc2ccc(NC(=O)CSc3nnnn3Cc3ccccc3)cc2s1
- AC50 [1]: 6.31 µM [rising, full curve]

SMILES: Cc1cc(Cl)ccc1NNC(=O)c1snnc1C
- AC50 [1]: 0.0224 µM [falling, full curve, poor fit]

SMILES: O=C(CCc1nnc(C2(c3ccc(Cl)cc3)CCC2)o1)NC1CC1
- AC50 [1]: 14.1 µM [falling, partial curve, poor fit]

SMILES: CN1CCc2nc3sc(C(=O)NCc4ccccc4)c(N)c3cc2C1
- AC50 [2]: 50.1 µM [rising, single point]

SMILES: CCN(CC)S(=O)(=O)c1ccc(N/N=C/c2cc(OC)ccc2O)nc1
- AC50 [2]: 11.2 µM [rising, single point]
- AC50 [1]: 12.6 µM [rising, partial curve]

SMILES: Fc1cccc(NC(=S)NCc2ccc(Cl)cc2)c1
- AC50 [2]: 11.2 µM [rising, partial curve, poor fit]
- AC50 [1]: 35.5 µM [rising, single point]

SMILES: CCCCCCn1c(N(CC)CC)nc2c1c(=O)[nH]c(=O)n2C
- AC50 [1]: 15.8 µM [rising, single point]

SMILES: CCCCOC(=O)CNc1nnc(SCC(=O)OCC)[nH]c1=O
- AC50 [2]: 35.5 µM [falling, single point]
- AC50 [1]: 35.5 µM [falling, single point]

SMILES: Cn1c(N=NC(=O)c2ccccc2)c(O)c2ccccc21
- AC50 [2]: 1.58 µM [rising, partial curve, poor fit]
- AC50 [1]: 0.158 µM [rising, full curve, poor fit]

SMILES: c1cc(CNC2C3CC4CC(C3)CC2C4)ccn1 (configuration not stated)
- AC50 [2]: 6.31 µM [falling, single point]

SMILES: CC(=O)N1CCN(S(=O)(=O)c2cccc(C(=O)Nc3nc4c(s3)CCCC4)c2)CC1
- AC50 [1]: 15.8 µM [rising, single point]

SMILES: CCN(CC)S(=O)(=O)c1ccc2c(c1)nc(CCC(=O)Nc1cccc(C(F)(F)F)c1)n2CC
- AC50 [1]: 0.00355 µM [falling, full curve, poor fit]

SMILES: Cc1cccc(NC(=O)c2cc(-c3ccc(C)s3)nc3ccccc23)n1
- AC50 [2]: 10 µM [rising, partial curve, poor fit]
- AC50 [1]: 15.8 µM [rising, partial curve]

SMILES: Cc1cc(C)nc(-n2nc(C)cc2NC(=O)c2ccc(F)cc2F)n1
- AC50 [1]: 7.08 µM [rising, partial curve]

SMILES: O=C(/C=C/c1ccc(OCCCF)cc1)NCc1ccc(Cl)c(Cl)c1
- AC50 [2]: 35.5 µM [falling, single point]
- AC50 [1]: 22.4 µM [falling, single point]

SMILES: CC(=O)Nc1ccc(S(=O)(=O)Oc2ccc(C(=S)N3CCC(O)CC3)cc2)cc1
- AC50 [2]: 3.16 µM [rising, full curve, poor fit]
- AC50 [1]: 11.2 µM [rising, partial curve]

SMILES: COc1ccc(O)c(CN2CCN(CCc3ccccc3)C(CCO)C2)c1 (configuration not stated)
- AC50 [1]: 0.0316 µM [falling, full curve, poor fit]

SMILES: O=C(NCc1ccco1)c1cc(NS(=O)(=O)c2cccc([N+](=O)[O-])c2)ccc1O
- AC50 [1]: 7.08 µM [rising, full curve, poor fit]

SMILES: CCOC(=O)c1cnn(-c2nc(SC)nc3sc4c(c23)CCCC4)c1N
- AC50 [1]: 35.5 µM [rising, single point]
